Laboratory results published in patent US20250241890A1, “1,4-DIUREAS AND 1,4-DITHIOUREAS AND USES THEREOF” (Purdue Research Foundation, priority 2024, published 2025).
For at least one compound, name, drawing or mass did not settle the structure.

Target: T1, α-synuclein (α-syn) (Homo sapiens, UniProt P37840)
T1 construct: purchased rPeptide (Watkinsville, GA)
Assay: Thioflavin T (ThT) fluorescence assay of α-syn fibril formation
Assay type: biochemical
Details: α-syn 6 μM, 47 hours, 12.5, 25, 50 and 100 μM
Procedure: Chemical and peptide source. Dimethylsulfoxide (DMSO) and thioflavin-T (ThT) were purchased from Alfa Aesar (Ward Hill, MA). Recombinant α-synuclein (α-syn) was procured from rPeptide (WatKinsville, GA). The recombinant p-tau isoform 1N4R was prepared as published previously (Fortin et al. 2021, Sui et al. 2015, Liu et al. 2020). Concerning the preparation of tau 0N4R, a bacterial expression plasmid consisting of the vector pET30a carrying a cDNA encoding the human Tau 0N4R isoform was a kind gift of Dr. Benjamin Wolozin (Boston University). […] General Characterizations. ^1H and ^13C {1H} NMR spectra were recorded using a 500 MHz Bruker instrument working at a frequency of 500 MHz for ^1H and at 126 MHz for ^13C. […] Thioflavin fluorescence assays. […] Kinetics of fibril formation have been performed using ThT as published previously.^6, 12, 13, 24 The fluorescence emission experiments were performed with the excitation and emission wavelengths set at 440 and 485 nm, respectively, with a Synergy HT multi-mode microplate reader (BioTek, Winooski, VT). Samples were measured in three replicates. […] For each time point, arbitrary units of fluorescence were calculated from the mean values normalized against the maximum value. The percentage of fluorescence intensity at the plateau phase in Table 1 was expressed as mean #SEM. […]

SMILES: O=C(Nc1ccc(NC(=O)Nc2cccc3[nH]ccc23)cc1)Nc1cccc2[nH]ccc12 [Compound 1, 3-(1H-indol-4-yl)-1-(4-{[(1H-indol-4-yl)carbamoyl]amino}phenyl)urea]
- dose-dependent reduction of α-syn fibrillation (ThT): dose-dependent reduction
